The supplement of paper PMC10849652
This is one part of the list.

Sequences of proteins named here, by UniProt entry; tags and fusion partners are left off. A change or cut given only in a name is not applied to a line headed by its entry.
UniProt P57682: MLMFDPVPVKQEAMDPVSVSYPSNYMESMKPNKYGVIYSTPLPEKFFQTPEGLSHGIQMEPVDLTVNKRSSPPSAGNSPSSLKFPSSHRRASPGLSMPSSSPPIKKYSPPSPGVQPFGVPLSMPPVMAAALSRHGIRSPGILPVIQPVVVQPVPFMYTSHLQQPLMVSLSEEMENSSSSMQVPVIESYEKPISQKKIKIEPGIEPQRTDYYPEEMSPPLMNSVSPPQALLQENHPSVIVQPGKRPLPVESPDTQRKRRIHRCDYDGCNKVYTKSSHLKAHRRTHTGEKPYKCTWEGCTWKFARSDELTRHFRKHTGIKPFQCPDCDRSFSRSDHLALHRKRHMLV
UniProt Q8IXV7: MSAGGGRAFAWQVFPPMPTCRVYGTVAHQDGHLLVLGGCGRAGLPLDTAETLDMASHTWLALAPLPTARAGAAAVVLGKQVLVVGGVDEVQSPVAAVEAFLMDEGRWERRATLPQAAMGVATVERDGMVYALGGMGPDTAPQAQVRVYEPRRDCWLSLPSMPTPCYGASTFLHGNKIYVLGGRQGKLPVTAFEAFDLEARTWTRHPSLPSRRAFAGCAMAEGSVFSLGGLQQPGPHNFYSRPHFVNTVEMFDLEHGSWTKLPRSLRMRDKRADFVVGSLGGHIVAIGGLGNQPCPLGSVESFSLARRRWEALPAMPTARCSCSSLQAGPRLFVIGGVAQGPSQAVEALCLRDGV
UniProt Q96MU8: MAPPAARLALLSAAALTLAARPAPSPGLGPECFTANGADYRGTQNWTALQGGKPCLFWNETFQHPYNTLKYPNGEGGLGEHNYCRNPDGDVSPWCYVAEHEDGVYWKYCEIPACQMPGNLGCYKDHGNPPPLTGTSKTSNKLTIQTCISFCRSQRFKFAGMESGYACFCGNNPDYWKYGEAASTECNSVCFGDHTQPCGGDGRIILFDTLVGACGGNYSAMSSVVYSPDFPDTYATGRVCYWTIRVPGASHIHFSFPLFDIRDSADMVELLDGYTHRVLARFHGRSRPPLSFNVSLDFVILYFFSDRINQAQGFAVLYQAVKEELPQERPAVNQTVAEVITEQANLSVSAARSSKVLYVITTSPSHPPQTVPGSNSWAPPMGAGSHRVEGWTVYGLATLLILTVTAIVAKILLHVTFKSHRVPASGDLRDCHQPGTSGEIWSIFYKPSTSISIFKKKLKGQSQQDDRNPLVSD
UniProt Q9BVV6: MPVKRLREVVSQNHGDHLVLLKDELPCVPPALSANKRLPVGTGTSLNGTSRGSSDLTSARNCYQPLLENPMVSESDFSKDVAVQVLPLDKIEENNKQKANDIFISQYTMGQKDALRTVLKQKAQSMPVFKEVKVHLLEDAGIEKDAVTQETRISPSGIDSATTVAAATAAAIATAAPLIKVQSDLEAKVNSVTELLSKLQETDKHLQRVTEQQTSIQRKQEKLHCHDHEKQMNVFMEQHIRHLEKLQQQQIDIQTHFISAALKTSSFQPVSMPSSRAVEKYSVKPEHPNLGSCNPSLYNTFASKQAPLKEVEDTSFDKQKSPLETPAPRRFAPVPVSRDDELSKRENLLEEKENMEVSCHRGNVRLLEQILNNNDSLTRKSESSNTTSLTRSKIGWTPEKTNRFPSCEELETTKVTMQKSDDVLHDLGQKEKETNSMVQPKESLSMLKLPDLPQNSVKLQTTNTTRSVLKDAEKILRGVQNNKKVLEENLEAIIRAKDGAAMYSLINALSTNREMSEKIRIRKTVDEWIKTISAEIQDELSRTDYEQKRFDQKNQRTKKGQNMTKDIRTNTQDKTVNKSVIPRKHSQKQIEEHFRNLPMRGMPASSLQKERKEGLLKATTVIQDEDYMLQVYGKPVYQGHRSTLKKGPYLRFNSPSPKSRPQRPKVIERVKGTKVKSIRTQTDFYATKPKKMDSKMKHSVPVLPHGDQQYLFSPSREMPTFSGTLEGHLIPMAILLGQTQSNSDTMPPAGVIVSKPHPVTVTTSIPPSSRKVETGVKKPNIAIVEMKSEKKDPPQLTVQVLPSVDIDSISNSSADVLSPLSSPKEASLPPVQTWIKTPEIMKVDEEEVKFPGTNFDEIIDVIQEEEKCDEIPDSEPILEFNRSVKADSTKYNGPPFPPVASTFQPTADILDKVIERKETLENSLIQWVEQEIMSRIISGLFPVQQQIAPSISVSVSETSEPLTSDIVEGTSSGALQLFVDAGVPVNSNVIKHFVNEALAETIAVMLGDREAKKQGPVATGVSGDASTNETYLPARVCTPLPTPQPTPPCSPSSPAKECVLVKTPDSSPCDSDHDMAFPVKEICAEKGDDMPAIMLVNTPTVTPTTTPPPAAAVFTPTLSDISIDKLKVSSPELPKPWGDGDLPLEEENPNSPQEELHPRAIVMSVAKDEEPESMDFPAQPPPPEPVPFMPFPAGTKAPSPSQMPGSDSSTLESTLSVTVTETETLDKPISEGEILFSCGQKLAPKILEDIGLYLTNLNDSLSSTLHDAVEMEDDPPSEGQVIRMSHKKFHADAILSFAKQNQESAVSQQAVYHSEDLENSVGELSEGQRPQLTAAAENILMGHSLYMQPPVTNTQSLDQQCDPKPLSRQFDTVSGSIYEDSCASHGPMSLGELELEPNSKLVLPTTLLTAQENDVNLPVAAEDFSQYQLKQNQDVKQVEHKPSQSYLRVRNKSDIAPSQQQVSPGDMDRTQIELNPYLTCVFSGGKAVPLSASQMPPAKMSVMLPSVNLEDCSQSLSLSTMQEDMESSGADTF
UniProt O00139: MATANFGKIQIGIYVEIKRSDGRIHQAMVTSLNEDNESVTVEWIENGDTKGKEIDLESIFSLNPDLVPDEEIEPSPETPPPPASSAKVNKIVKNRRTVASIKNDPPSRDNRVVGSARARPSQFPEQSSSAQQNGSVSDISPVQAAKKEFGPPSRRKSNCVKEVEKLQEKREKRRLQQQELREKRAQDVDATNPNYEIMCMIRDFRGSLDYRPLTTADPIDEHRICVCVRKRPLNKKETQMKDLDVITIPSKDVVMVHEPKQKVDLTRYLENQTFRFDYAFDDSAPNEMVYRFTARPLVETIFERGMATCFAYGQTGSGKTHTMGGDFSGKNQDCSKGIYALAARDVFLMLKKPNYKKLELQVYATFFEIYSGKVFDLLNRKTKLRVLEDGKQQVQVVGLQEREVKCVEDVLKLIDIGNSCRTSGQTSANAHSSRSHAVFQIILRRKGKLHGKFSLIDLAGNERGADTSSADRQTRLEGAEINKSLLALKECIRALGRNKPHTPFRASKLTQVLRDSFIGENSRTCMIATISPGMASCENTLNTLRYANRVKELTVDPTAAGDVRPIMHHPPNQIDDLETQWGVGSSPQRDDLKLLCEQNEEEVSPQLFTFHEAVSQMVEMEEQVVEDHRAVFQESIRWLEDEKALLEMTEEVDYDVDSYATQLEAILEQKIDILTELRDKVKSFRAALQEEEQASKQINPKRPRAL
UniProt O60303: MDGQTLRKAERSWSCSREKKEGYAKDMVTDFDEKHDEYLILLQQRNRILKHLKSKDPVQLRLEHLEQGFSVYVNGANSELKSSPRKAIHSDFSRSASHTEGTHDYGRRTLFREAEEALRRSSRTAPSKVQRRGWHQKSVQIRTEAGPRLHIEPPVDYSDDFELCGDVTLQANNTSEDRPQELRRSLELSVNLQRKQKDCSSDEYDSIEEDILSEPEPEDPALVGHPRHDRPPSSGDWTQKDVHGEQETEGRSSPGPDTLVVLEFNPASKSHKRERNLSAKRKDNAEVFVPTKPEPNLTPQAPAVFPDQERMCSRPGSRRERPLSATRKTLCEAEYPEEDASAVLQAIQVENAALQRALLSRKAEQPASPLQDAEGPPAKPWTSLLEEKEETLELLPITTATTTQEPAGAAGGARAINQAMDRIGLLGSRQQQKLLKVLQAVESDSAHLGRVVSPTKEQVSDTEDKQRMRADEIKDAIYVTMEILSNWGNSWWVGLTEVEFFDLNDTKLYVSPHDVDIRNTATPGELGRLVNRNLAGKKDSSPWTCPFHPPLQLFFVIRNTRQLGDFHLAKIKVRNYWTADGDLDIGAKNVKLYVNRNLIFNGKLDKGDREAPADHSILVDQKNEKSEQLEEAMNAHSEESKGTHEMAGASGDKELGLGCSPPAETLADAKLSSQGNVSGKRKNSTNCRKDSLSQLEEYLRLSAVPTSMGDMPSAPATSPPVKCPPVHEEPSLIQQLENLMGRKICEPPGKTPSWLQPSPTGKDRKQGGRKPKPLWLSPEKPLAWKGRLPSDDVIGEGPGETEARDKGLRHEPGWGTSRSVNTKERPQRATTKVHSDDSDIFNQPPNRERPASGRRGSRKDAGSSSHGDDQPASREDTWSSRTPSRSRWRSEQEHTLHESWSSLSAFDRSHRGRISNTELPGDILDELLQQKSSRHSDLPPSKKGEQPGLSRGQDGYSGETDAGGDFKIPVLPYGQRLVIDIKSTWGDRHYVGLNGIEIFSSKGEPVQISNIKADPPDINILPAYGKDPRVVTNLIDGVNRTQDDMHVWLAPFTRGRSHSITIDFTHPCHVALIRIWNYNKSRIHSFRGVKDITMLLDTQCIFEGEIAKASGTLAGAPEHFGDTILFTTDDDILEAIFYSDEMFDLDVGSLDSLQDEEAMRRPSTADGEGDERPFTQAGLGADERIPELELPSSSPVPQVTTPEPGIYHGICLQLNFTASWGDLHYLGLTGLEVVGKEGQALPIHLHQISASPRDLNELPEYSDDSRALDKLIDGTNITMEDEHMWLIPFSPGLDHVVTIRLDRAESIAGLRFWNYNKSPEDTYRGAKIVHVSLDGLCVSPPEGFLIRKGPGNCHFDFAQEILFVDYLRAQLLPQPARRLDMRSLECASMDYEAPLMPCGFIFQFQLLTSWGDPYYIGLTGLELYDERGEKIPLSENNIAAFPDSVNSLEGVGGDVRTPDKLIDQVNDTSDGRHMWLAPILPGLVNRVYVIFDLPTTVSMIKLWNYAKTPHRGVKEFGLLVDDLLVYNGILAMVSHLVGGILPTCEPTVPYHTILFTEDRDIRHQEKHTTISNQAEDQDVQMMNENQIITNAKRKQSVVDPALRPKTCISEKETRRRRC
UniProt O15037: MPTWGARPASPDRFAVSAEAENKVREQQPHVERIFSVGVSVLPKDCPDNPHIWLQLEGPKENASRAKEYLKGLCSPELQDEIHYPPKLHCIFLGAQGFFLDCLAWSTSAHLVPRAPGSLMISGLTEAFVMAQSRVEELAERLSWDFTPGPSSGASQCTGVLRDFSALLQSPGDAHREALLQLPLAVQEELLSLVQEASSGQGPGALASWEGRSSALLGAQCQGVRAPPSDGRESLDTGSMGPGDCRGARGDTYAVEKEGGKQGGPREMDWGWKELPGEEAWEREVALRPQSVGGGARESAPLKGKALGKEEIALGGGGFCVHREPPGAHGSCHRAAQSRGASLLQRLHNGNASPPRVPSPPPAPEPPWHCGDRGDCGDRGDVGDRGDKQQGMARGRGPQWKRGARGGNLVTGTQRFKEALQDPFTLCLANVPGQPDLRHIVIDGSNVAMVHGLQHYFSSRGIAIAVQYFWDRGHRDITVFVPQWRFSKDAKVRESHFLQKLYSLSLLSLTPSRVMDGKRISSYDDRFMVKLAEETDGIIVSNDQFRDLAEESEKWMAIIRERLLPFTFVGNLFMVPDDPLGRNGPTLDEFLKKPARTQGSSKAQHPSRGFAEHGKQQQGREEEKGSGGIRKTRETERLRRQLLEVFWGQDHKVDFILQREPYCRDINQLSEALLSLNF
UniProt Q9HCI6: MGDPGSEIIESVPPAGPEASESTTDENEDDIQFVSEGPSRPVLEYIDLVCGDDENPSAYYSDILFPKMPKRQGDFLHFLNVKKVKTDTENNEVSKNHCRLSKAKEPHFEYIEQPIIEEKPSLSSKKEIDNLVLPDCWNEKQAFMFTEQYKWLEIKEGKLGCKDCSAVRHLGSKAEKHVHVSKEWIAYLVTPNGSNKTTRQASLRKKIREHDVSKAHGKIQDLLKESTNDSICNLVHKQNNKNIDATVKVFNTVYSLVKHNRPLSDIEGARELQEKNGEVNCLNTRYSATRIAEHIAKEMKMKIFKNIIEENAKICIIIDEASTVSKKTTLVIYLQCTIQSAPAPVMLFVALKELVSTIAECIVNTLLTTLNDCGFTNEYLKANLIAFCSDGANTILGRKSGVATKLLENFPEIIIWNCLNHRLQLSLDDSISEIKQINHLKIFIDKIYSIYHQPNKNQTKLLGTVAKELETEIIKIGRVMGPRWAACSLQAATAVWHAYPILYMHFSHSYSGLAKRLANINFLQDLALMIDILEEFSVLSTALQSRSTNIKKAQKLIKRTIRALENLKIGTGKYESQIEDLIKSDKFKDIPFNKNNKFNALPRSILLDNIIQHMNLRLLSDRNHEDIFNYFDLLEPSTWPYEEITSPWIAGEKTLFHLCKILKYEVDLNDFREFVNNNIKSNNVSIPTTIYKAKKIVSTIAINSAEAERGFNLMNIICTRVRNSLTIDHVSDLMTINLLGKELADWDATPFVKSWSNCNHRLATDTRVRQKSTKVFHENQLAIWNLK

Columns and labels:
Experiment in all cases: log2 fold change, soluble protein after heating vs DMSO (PISA); higher = thermal stabilisation; K562 lysate, 10 uM; active = over 0.2 and 3.5 SD of the protein, either way, in both replicates (recomputed)
[1] = compound: CN1CCc2c(c3ccccc3n2Cc2ccc(C(=O)NO)cc2)C1 [Tubastatin A]
In short: (§1)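 Following dounce homogenisation of K562 pellets in PBS pH 7.4 with 1 mM MgCl2, crude extract at 1 mg/mL protein was incubated for 30 min with 10 μM compound. Aliquots were then heated for 3 min over 48°C-58°C and pooled, NP-40 was added to 0.5% at 4°C, and soluble protein was recovered as the supernatant at 21,000xg for 90 min. Channel-sum-equalised TMTpro 16plex LC-MS/MS quantified this protein. Each value, from duplicates, is a log-two fold change in thermal stability relative to solvent controls.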

[2] = compound: COC(=O)N[C@@H](C)CNc1nccc(-c2cn(C(C)C)nc2-c2cc(Cl)cc(NS(C)(=O)=O)c2F)n1 [encorafenib]
In short: as §1

[3] = compound: COC(=O)[C@H](CCSC)NC(=O)C1=C(C=C(C=C1)NC[C@H](CS)N)C2=CC=CC=C2
In short: as §1

[4] = compound: COc1cc(Nc2ncc3c(n2)-c2ccc(Cl)cc2C(c2c(F)cccc2OC)=NC3)ccc1C(=O)O [alisertib]
In short: as §1

[5] = compound: COc1cc2ncnc(Nc3ccc(F)c(Cl)c3)c2cc1OCCCN1CCOCC1 [gefitinib]
In short: as §1

[6] = compound: C[C@@H](Oc1cc(-c2cnn(C3CCNCC3)c2)cnc1N)c1c(Cl)ccc(F)c1Cl [crizotinib]
In short: as §1

[7] = compound: Cc1cc(Nc2cc(N3CCN(C)CC3)nc(Sc3ccc(NC(=O)C4CC4)cc3)n2)n[nH]1 [tozasertib]
In short: as §1

[8] = compound: Cc1ccc(-n2nc(C(C)(C)C)cc2NC(=O)Nc2ccc(OCCN3CCOCC3)c3ccccc23)cc1 [doramapimod]
In short: as §1

[9] = compound: CS(=O)(=O)N1CCN(Cc2cc3nc(-c4cccc5[nH]ncc45)nc(N4CCOCC4)c3s2)CC1 [pictilisib]
In short: as §1

[10] = compound: Cc1ccc(NC(=O)c2ccc(CN3CC[C@H](N(C)C)C3)c(C(F)(F)F)c2)cc1Nc1nccc(-c2cncnc2)n1 [bafetinib]
In short: as §1

[11] = compound: CNC(=O)C1=CC=CC=C1NC2=NC(=NC=C2Cl)NC3=C(C=C(C=C3)N4CCOCC4)OC
In short: as §1

[12] = compound: CNc1nc(-c2ccc3c(N)n[nH]c3c2)cc(N2C[C@@H](C(=O)NC3CCCCC3)CC[C@H]2C)n1
In short: as §1

[13] = compound: C[C@H](Nc1ncnc2nc[nH]c12)c1cc2cccc(Cl)c2c(=O)n1-c1ccccc1 [duvelisib]
In short: as §1

[14] = compound: CNC(=O)c1ccc(Nc2ncc(C(F)(F)F)c(NCc3nccnc3N(C)S(C)(=O)=O)n2)cc1 [defactinib]
In short: as §1

[15] = compound: COc1cc2nc(-c3cc(F)ccc3O)nc(N[C@@H]3CNC[C@H]3C(C)(C)O)c2cc1OC
In short: as §1

[16] = compound: CS(=O)(=O)CCNCc1ccc(-c2ccc3ncnc(Nc4ccc(OCc5cccc(F)c5)c(Cl)c4)c3c2)o1 [lapatinib]
In short: as §1

[17] = compound: CN1CC[C@H](c2c(O)cc(O)c3c(=O)cc(-c4ccccc4Cl)oc23)[C@H](O)C1 [alvocidib]
In short: as §1

[18] = compound: C[C@H](C1=CC=C(C=C1)C(=O)NC2=C3C=CNC3=NC=C2)N
In short: as §1

[19] = compound: Cc1cc(Nc2cc(CN3CCOCC3)c3nc(C)c(Cc4ccc(Cl)cc4F)n3n2)n[nH]1 [gandotinib]
In short: as §1

[20] = compound: Cc1cccc(CC(=O)N2CCc3c2ccc(-c2cn(C)c4ncnc(N)c24)c3F)n1
In short: as §1

Measured: log2 fold change

KLF3 (UniProt P57682)
inactive: [1] -0.121 | [2] 0.019 | [3] -0.145 | [4] -0.002 | [5] 0.216 | [6] 0.059 | [7] 0.117 | [8] 0.243

KIAA1549 (UniProt Q9HCM3)
inactive: [1] 0.163 | [4] 0.076 | [5] 0.292 | [9] -0.16 | [10] -0.446

KLHDC8B (UniProt Q8IXV7)
inactive: [1] 0.16 | [11] 0.028 | [12] 0.047 | [2] 0 | [3] 0.154 | [4] 0.236 | [5] 0.206 | [6] -0.07 | [13] 0.028 | [7] 0.025 | [8] 0.006

KRIT1 (UniProt O00522)
inactive: [1] -0.034 | [11] 0.089 | [14] 0.045 | [12] 0.102 | [2] 0.118 | [3] 0.123 | [4] 0.038 | [15] -0.055 | [5] 0.029 | [16] -0.115 | [9] -0.058 | [6] -0.07 | [13] -0.001 | [7] -0.043 | [8] 0.016 | [10] -0.041

LAMB2 (UniProt P55268)
inactive: [11] -0.278 | [12] 0.179 | [2] -0.005 | [3] -0.008 | [13] -0.015 | [7] 0.089

KREMEN1 isoform 2 (UniProt Q96MU8)
inactive: [6] 0.046 | [8] 0.15

KISS1R (UniProt Q969F8)
inactive: [4] -0.05 | [5] -0.073 | [6] -0.154 | [8] 0.169

KTN1 (UniProt G3V5Q0)
inactive: [11] 0.183 | [14] -0.059 | [2] -0.052 | [3] -0.021 | [9] -0.163 | [7] 0.087 | [10] 0.059

KIF18B (UniProt Q86Y91)
inactive: [12] -0.067 | [2] -0.159 | [3] -0.04 | [15] 0.046 | [16] -0.024 | [6] -0.008 | [13] 0.068 | [7] -0.161 | [8] 0.077

KLHDC2 (UniProt Q9Y2U9)
inactive: [11] -0.045 | [14] -0.05 | [6] -0.11 | [8] 0.012

KIF21A (UniProt H0YI78)
inactive: [11] 0.056 | [12] -0.01 | [4] -0.003 | [15] 0.029 | [5] -0.1 | [16] -0.11 | [9] 0.052 | [13] -0.013 | [10] 0.187

KRT87P (UniProt A6NCN2)
inactive: [11] 0.037

KIAA0586 isoform 3 (UniProt Q9BVV6)
inactive: [1] -0.108 | [11] 0.017 | [12] 0.036 | [4] 0.216 | [5] -0.032 | [6] -0.068 | [13] 0.356 | [8] -0.057

KIF2A isoform 2 (UniProt O00139)
inactive: [17] 0.153 | [18] 0.192 | [19] -0.059 | [20] -0.059

LARGE2 (UniProt Q8N3Y3)
inactive: [17] -0.062 | [4] 0.041 | [5] -0.152 | [18] 0.152 | [19] -0.159 | [20] 0.254

Retrieved one by one from above (2):
KIF2A isoform 2 (UniProt O00139)
inactive: [17] 0.153 | [18] 0.192 | [19] -0.059 | [20] -0.059

KRT87P (UniProt A6NCN2)
inactive: [11] 0.037

Remaining list, next part.

KLHL12 isoform 2 (UniProt Q53G59)
inactive: [1] -0.156 | [11] -0.051 | [14] -0.025 | [12] -0.02 | [4] 0.023 | [15] 0.086 | [5] -0.048 | [16] 0.023 | [9] 0.048 | [6] 0.016 | [13] 0.084 | [8] 0.003 | [10] -0.131

KLC1 isoform 10 (UniProt Q07866)
inactive: [11] 0.147 | [2] 0.06 | [3] -0.109 | [9] -0.167 | [7] 0.016 | [10] 0.032

KRAS isoform 2 (UniProt P01116)
inactive: [1] 0.076 | [11] -0.037 | [12] 0.046 | [2] -0.109 | [3] -0.062 | [15] 0.019 | [16] -0.023 | [6] -0.016 | [13] -0.022 | [7] -0.043 | [8] -0.062

KIDINS220 isoform 2 (UniProt Q9ULH0)
inactive: [14] -0.104

LACRT (UniProt Q9GZZ8)
inactive: [11] 0.227 | [15] 0.014 | [16] 0.054

LAPTM4A (UniProt Q15012)
inactive: [14] 0.289 | [12] -0.379 | [13] 0.242

KMT2B (UniProt Q9UMN6)
inactive: [11] -0.083 | [12] 0.246 | [2] 0.127 | [3] -0.008 | [6] 0.073 | [13] -0.034 | [7] 0.073 | [8] -0.033

KLF1 (UniProt Q13351)
inactive: [1] -0.07 | [11] 0.19 | [4] 0.025 | [15] 0.038 | [5] -0.078 | [16] 0.026 | [9] 0.053 | [10] -0.066

KLF13 (UniProt Q9Y2Y9)
inactive: [6] 0.177 | [8] 0.049

KRT13 (UniProt K7EMD9)
inactive: [1] 0.286 | [11] 0.071 | [9] 0.356 | [10] 0.285

KIAA0556 (UniProt O60303)
inactive: [4] -0.004 | [5] 0.299

KLHL8 (UniProt Q9P2G9)
inactive: [1] 0.071

KHNYN (UniProt O15037)
inactive: [1] -0.072 | [11] -0.063 | [14] -0.016 | [12] -0.025 | [2] 0.069 | [3] -0.004 | [4] 0.078 | [5] -0.219 | [9] -0.034 | [6] -0.044 | [13] -0.061 | [7] 0.012 | [8] 0.112 | [10] -0.138

Two successive entries out of the list so far:
KRT13 (UniProt K7EMD9)
inactive: [1] 0.286 | [11] 0.071 | [9] 0.356 | [10] 0.285

KIAA0556 (UniProt O60303)
inactive: [4] -0.004 | [5] 0.299

(next part)

KIAA1586 (UniProt Q9HCI6)
inactive: [1] 0.044 | [11] -0.222 | [14] 0.08 | [12] -0.008 | [4] -0.06 | [5] -0.277 | [9] -0.031 | [13] 0.047 | [10] 0.034

KLK3 (UniProt P07288)
inactive: [12] 0.276 | [13] 0.193
